Laboratory results taken from PubChem BioAssay AID504467 (National Center for Advancing Translational Sciences (NCATS), 2011).
In all, about 330,000 compounds went through this assay and about 7,700 (2.3%) were called active. This list was built around the results that the source calls inconclusive (neither active nor inactive); the mix of calls is not that of the screen. The call rests on the fitted dose curve; in most records, active means well fitted inhibition curve with a large enough effect; inconclusive means small, poorly fitted or top-dose-only effect, or effect the other way; inactive means flat fitted curve, though single readings scatter. Where the call is inconclusive, the potency comes from a doubtful curve fit.
Potency means the concentration at half of the fitted maximal effect.

Experiment: qHTS screen for small molecules that inhibit ELG1-dependent DNA repair in human embryonic kidney (HEK293T) cells expressing luciferase-tagged ELG1; further: nearly all actives have a fitted effect of over 55% in size
Details: HEK293T ELG1-luciferase reporter, luminescence, 16 h, DNA damage induced by 5-fluorouridine; series mostly up to 46.1 µM
In short: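 In this reporter screen, reduction of luminescence relative to DMSO vehicle indicated activity. Compounds and 5-fluorouridine were added together to 2,000 cells per well, incubated for 16 hr at 37 °C, then developed with ONE-Glo.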
For `N#Cc1c(NC(=O)c2ccccc2Cl)n(Cc2ccccc2)c2nc3ccccc3nc12`, the Potency was active: 20.6 µM.
With `O=C(Nc1ccncc1)c1cccs1` the Potency was inconclusive: 29.1 µM [inhibitor, partial curve, poor fit].
In the case of `C/C(CCC(C)C)=N\NC(=S)NCc1ccccc1`, the Potency was “inactive”.
In the case of `CC(=O)Nc1ccc(S(=O)(=O)N2CCSC2c2ccccc2)cc1` (stereo not drawn), the Potency was “inactive”.
In the case of `CCSc1ccccc1C(=O)Nc1ccc([N+](=O)[O-])cc1OC`, the Potency was inconclusive: 14.6 µM [inhibitor, single point].
For `COc1ccc(C(C(=O)NC2CCCCC2)N(C(=O)c2cccs2)c2ccc3c(c2)OCO3)cc1` (stereo not drawn), the Potency was “inactive”.
In the case of `CCn1cnc2cc(NCc3ccc(Cl)cc3)ccc21`, the Potency was inconclusive: 11.6 µM [activator, partial curve].
For `Cc1c(NC(=O)Nc2cc(Cl)ccc2Cl)c(=O)n(-c2ccccc2)n1C`, the Potency was “inactive”.
In the case of `CC1CC(C)CN(C(=O)C2CCN(S(=O)(=O)c3c(Cl)cccc3Cl)CC2)C1` (stereo not drawn), the Potency was “inactive”.
With `N#C/C(=N\Nc1cccc(F)c1)C(=O)C1CC1` the Potency was inconclusive: 29.1 µM [inhibitor, single point].
In the case of `Cc1cccc(-c2nnc(SC(C)C(=O)N3CCOCC3)o2)c1` (stereo not drawn), the Potency was “inactive”.
In the case of `c1ccc2sc(NC3=NCN(CC4CCCO4)CN3)nc2c1` (stereo not drawn), the Potency was inconclusive: 29.1 µM [activator, single point].
For `Cc1cc2cc(CNC(=O)C3CCCC3)ccc2n1C`, the Potency was inconclusive: 23.1 µM [activator, partial curve, poor fit].
With `Cc1c(CCOC(=O)c2cc([N+](=O)[O-])cc([N+](=O)[O-])c2)sc[n+]1CC(=O)c1ccc(Br)cc1` the Potency was inconclusive: 20.6 µM [inhibitor, single point].
In the case of `O=C(O)CCC(=O)CCC(=O)c1ccc(Cl)cc1`, the Potency was “inactive”.
In the case of `CCOC(=O)/C(C#N)=C/c1c(N2CCN(c3ccc(OC)cc3)CC2)nc2c(C)cccn2c1=O`, the Potency was inconclusive: 18.3 µM [inhibitor, partial curve].
For `CC(=O)c1ccc(NC(=O)CN2C(=O)COc3ccc(S(=O)(=O)N4CCCC4)cc32)cc1`, the Potency was inconclusive: 29.1 µM [activator, single point].
In the case of `COc1ccccc1NS(=O)(=O)c1cc(C(=O)NCCC(C)C)ccc1F`, the Potency was inconclusive: 10.3 µM [inhibitor, partial curve, poor fit].
For `CC(=O)N(C(C)=O)c1nc(-c2ccccc2)cn1/N=C/c1ccccc1`, the Potency was inconclusive: 18.3 µM [inhibitor, single point].
In the case of `CC(C)(C)C1COc2ccccc2N1C(=O)c1cccc(Cl)c1` (stereo not drawn), the Potency was “inactive”.
With `CCOc1ccc(CCNC(=O)CN(C)S(=O)(=O)c2cccc3nsnc23)cc1OCC` the Potency was inconclusive: 18.4 µM [inhibitor, partial curve].
In the case of `O=C1CCCN2N=C(SCC(=O)Nc3ccc(Cl)cc3)SC2=N1`, the Potency was “inactive”.
With `CCc1c(C)c(C#N)c2[nH]c3ccccc3n2c1=S` the Potency was inconclusive: 6.51 µM [inhibitor, single point].
With `c1ccc(-c2nc3nc4ccccc4nc3n2CC2CCCO2)cc1` (stereo not drawn) the Potency was “inactive”.
With `Cc1sc2ncnc(N3CCC(C(=O)NNC(=O)c4ccccc4Cl)CC3)c2c1C` the Potency was inconclusive: 16.4 µM [inhibitor, partial curve].
For `CC1CC(N(C(=O)c2ccco2)c2ccccc2)c2ccccc2N1C(=O)c1ccco1` (stereo not drawn), the Potency was inconclusive: 18.4 µM [inhibitor, single point].
With `CN(CC(=O)Nc1ccccc1Cl)C(=O)COC(=O)C1=COCCO1` the Potency was inconclusive: 11.6 µM [activator, partial curve, poor fit].
With `O=C(NCc1ccccc1Cl)C1=CC=CN2CCS(=O)(=O)N=C12` the Potency was inconclusive: 8.91 µM [activator, partial curve, poor fit].
For `Cc1ccc2cc(NC(=O)c3ccccc3)ccc2n1`, the Potency was inconclusive: 2.06 µM [activator, partial curve].
For `CCCN(CCC)S(=O)(=O)c1cccc(C(=O)Nc2ccc3c(c2)OCO3)c1`, the Potency was inconclusive: 23.1 µM [inhibitor, single point].
With `COc1[nH]c(/N=C/c2ccccc2)c(C#N)c1C#N` the Potency was inconclusive: 25.9 µM [activator, partial curve, poor fit].
With `Cc1ccc2nc3n(c(=O)c2c1)-c1ccccc1C(=O)NC3Cc1ccccc1` (stereo not drawn) the Potency was “inactive”.
With `CCCn1nnnc1NC(=O)COc1ccc(Br)cc1` the Potency was “inactive”.
In the case of `Cc1cccc(N2CCN(C(=S)c3ccc(-c4ccccc4[N+](=O)[O-])o3)CC2)c1`, the Potency was “inactive”.
With `COc1cc(OC)cc(-c2c(-c3cccs3)c3cc(-c4cnc(OC)nc4)ccc3n2C)c1` the Potency was inconclusive: 3.26 µM [inhibitor, full curve].
With `CC(=O)c1ccc(NC(=O)COC(=O)Cn2cnc3ccccc32)cc1` the Potency was inconclusive: 3.66 µM [activator, single point].
In the case of `Cc1ccc(S(=O)(=O)CCC(=O)OCc2ccc(Cl)c(Cl)c2)cc1`, the Potency was inconclusive: 18.4 µM [activator, partial curve, poor fit].
With `Cc1cccc(NC(=O)c2cc(-c3cc(C)ccc3O)n[nH]2)c1` the Potency was inconclusive: 2.06 µM [activator, full curve].
With `CCOC(=O)C(C)On1c(-c2ccc(Cl)cc2)nc2ccc([N+](=O)[O-])cc21` (stereo not drawn) the Potency was inconclusive: 29.1 µM [inhibitor, single point].
With `Cc1oc2c(c1C(=O)c1ccccc1)C(=O)C(=O)c1ccccc1-2` the Potency was inconclusive: 9.2 µM [inhibitor, single point].
With `COc1cccc(OCc2cc(C(=O)N(C)CCOc3ccc(C)cc3)no2)c1` the Potency was inconclusive: 5.17 µM [activator, full curve].
For `CS(=O)(=O)c1ccc(C(=O)OC2CCOC2=O)cc1[N+](=O)[O-]` (stereo not drawn), the Potency was inconclusive: 16.4 µM [activator, partial curve].
With `O=C(NCCC1CCCCN1S(=O)(=O)c1cccs1)C(=O)Nc1cccc(F)c1` (stereo not drawn) the Potency was “inactive”.
With `COc1ccccc1C/C(N)=N/OC(=O)c1cccc([N+](=O)[O-])c1C` the Potency was active: 23.1 µM.
For `O=C(c1ccccc1[N+](=O)[O-])n1cnc2ccccc21`, the Potency was “inactive”.
With `N#CC1=C(N)N2C(=C(C#N)C13CCN(Cc1ccccc1)CC3)Nc1ccccc12` the Potency was inconclusive: 20.6 µM [inhibitor, partial curve, poor fit].
With `CC(C)(C)NC(=O)C(c1ccc(-c2ccccc2)cc1)N(C[C@H]1CC[C@@H]([C@@H]2CC[C@H](CO)O2)O1)C(=O)c1cccc(Cl)c1` (stereo partly drawn) the Potency was inconclusive: 14.6 µM [inhibitor, partial curve, poor fit].
With `CCn1nc2cc(C(=O)NCc3cc(C(F)(F)F)cc(C(F)(F)F)c3)ccc2c1OC` the Potency was inconclusive: 18.4 µM [inhibitor, single point].
In the case of `C=CCn1c(SCC(=O)NCc2ccccc2)nnc1-c1cc(Br)ccc1O`, the Potency was active: 13 µM.
In the case of `C/C(=N\NC(=O)c1c[nH]c2ccccc12)c1ccc2c(c1)OCO2`, the Potency was inconclusive: 18.3 µM [activator, partial curve].
With `c1ccc2[nH]c(CSc3nnc(-c4ccncc4)o3)nc2c1` the Potency was inconclusive: 29.1 µM [inhibitor, single point].
In the case of `Cc1cc(C)n2nc(C(=O)Nc3ccccc3N3CCOCC3)nc2n1`, the Potency was inconclusive: 35.5 µM [activator, partial curve, poor fit].
In the case of `CSCC[C@@H](C(=O)NCCCCCCCCCCC(=O)N1CCNCC1)n1cc(CCO)nn1`, the Potency was inconclusive: 11.2 µM [activator, single point].
With `COc1cc2c(cc1OC)CN(C(C)C(=O)N1CCc3ccccc31)CC2` (stereo not drawn) the Potency was inconclusive: 14.6 µM [inhibitor, partial curve, poor fit].
In the case of `C[C@@]12CCC=C[C@H]1[C@H](c1ccc3ccccc3c1)N(Cc1ccccc1)C2=O`, the Potency was “inactive”.
With `CCNc1nc(NCC)nc(Oc2ccc(OCC)nn2)n1` the Potency was inconclusive: 16.4 µM [activator, partial curve].
With `O=C1N(C2CCCC2)C[C@@H]2C[C@@H](c3cccn3-c3nccs3)N3CCC[C@@]123` the Potency was “inactive”.
With `COc1cc(CC(=O)OCC(=O)NC2CCCC2)cc(OC)c1OC` the Potency was “inactive”.
With `Cc1cccc(NC(=O)c2ccc([N+](=O)[O-])s2)n1` the Potency was inconclusive: 2.91 µM [inhibitor, partial curve].
With `Oc1ccc(-c2nc(-c3ccc(O)c(O)c3)cs2)cc1` the Potency was inconclusive: 4.61 µM [activator, full curve].
In the case of `Cc1cccc2cc(CN(Cc3cccs3)C(=S)NCc3ccco3)c(=O)[nH]c12`, the Potency was active: 20.6 µM.
For `COc1ccc(-c2noc(CCC(=O)NCCN3CCN(c4ccccc4F)CC3)n2)cc1`, the Potency was inconclusive: 18.4 µM [inhibitor, single point].
For `CC(=O)Nc1ccc2c(c1)ncn2C`, the Potency was inconclusive: 18.4 µM [activator, single point].
With `O=C(Nc1ccc(Oc2ccccc2)nc1)C1CCCCN1Cc1ccco1` (stereo not drawn) the Potency was inconclusive: 5.8 µM [inhibitor, single point].
In the case of `CC(=O)Oc1ccc(/C=N/NC(=S)Nc2ccccc2)cc1`, the Potency was inconclusive: 5.8 µM [activator, full curve].
With `Cn1c2c(c(=O)n(C)c1=O)C(c1ccccc1Cl)C(C#N)=C(N)O2` (stereo not drawn) the Potency was “inactive”.
For `Cc1ccc(C(=O)CCC(=O)OCc2nnc(-c3ccccc3)o2)cc1`, the Potency was inconclusive: 16.4 µM [activator, partial curve, poor fit].
With `Cc1ccc(CNC(=O)Nc2ccccc2)c(C)c1` the Potency was inconclusive: 8.2 µM [activator, partial curve].
